Experimental data: the supplement of paper PMC12889115
The list shows a part of the results. These are raw signals, not scaled to a control.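 Primary screen: polymyxin B was added at a level permeabilizing Salmonella outer membranes while sparing inner membranes. DMSO wells, both with and without polymyxin B, established maximum growth. Plate-to-plate variation meant each plate was ranked on its own, and the lowest-OD600 compounds were selected as hits.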

System: Salmonella enterica serovar Typhimurium SL1344
Test: bacterial growth OD600 after 18 h with compound and polymyxin B; higher = more bacterial growth (less inhibition)
Conditions: 50 µM, Mueller-Hinton broth

SMILES | bacterial growth OD600 (polymyxin B 0.75 µg/mL) | bacterial growth OD600 (polymyxin B 1 µg/mL)
CCN(CC)c1ncccc1CNC(=O)Cc1cccs1 | 0.797 | 
Cc1cccc(-c2cccc(C(=O)N3CCc4c(cnc(C)c4CNC(=O)C4CCCO4)C3)c2)c1 (stereo not given) | 0.479 | 
CCn1ccnc1CNC1CC(=O)N(CCc2cccc(Cl)c2)C1 (stereo not given) |  | 0.952
COC(=O)CCC(=O)N(C)CC1CCN(CCc2ccccc2OC)CC1 |  | 1.01
COc1ccc(NC2CCCN(C(=O)c3ccc(Cl)cc3F)C2)cc1 (stereo not given) |  | 0.888
CCn1ncc(CN2CCOC(Cc3cccc(C(F)(F)F)c3)C2)c1C (stereo not given) | 0.752 | 
COc1ccccc1CC(=O)Nc1cnn(CC(=O)N2CCC(c3cccc(OC)c3OC)C2)c1 (stereo not given) | 0.856 | 
CN(Cc1ccon1)C(=O)c1ccc(OC2CCN(C(=O)C3CC3)CC2)cc1 |  | 1
COc1cc(CC2(CCC(=O)NCc3cnn(-c4ccccc4OC)c3)CCC(=O)N2)ccc1F (stereo not given) | 0.804 | 
COC(=O)CCNC(=O)C1CCN(c2nc(-c3ccccc3)nc3c2CCC3)CC1 | 0.808 | 
O=C(Cc1ccc(N2CCC(NCCc3ccc(C(F)(F)F)cc3)CC2)cc1)NCc1ccccn1 | 0.661 | 
Cc1cnc(C(=O)N2CCc3[nH]nc(-c4ccc(Cl)cc4)c3C2)cn1 | 0.733 | 
CC1(C(=O)N2CCCC(CCc3ccccc3)C2)CC1 (stereo not given) | 0.706 | 
COc1ccc(-c2cnnc(NCCN3CCCCC3CO)n2)cc1 (stereo not given) | 0.751 | 
CN(C(=O)CC1(c2ccccc2Cl)CC(=O)N(C2CCCC2)C1=O)C(C1CC1)C1CC1 (stereo not given) | -0.002 | 
COc1ccc(OCc2nc(C(=O)NC(C)c3ccccc3)co2)cc1 (stereo not given) |  | 0.668
O=C(c1ccc(N2CCC(NCc3cccc(OC(F)(F)F)c3)CC2)cc1)N1CCOCC1 | 0.876 | 
CCN1CC(CNC2CCN(c3ccc(C(=O)NCc4ccc5c(c4)OCO5)cc3)CC2)CC1=O (stereo not given) | 0.882 | 
COc1ccccc1CC(=O)NCc1cccnc1-n1cnc2ccccc21 |  | 0.834
O=C(c1ccncc1)N1CCC(C2CCN(Cc3cccnc3)CC2)C1 (stereo not given) |  | 0.903

Two successive entries from above, quoted:
SMILES | bacterial growth OD600 (polymyxin B 0.75 µg/mL) | bacterial growth OD600 (polymyxin B 1 µg/mL)
CN(C(=O)CC1(c2ccccc2Cl)CC(=O)N(C2CCCC2)C1=O)C(C1CC1)C1CC1 (stereo not given) | -0.002 | 
COc1ccc(OCc2nc(C(=O)NC(C)c3ccccc3)co2)cc1 (stereo not given) |  | 0.668
